Data as given in US10894040B2, “S1P modulating agents” (BIOGEN MA INC., priority 2011, dated 2021).
Some entries share one result that the patent states for a list of compounds. Some compounds share one range, which may span the group rather than tell each member.

Sequences of proteins named here, by UniProt entry; tags and fusion partners are left off.
UniProt P21453, whole entry: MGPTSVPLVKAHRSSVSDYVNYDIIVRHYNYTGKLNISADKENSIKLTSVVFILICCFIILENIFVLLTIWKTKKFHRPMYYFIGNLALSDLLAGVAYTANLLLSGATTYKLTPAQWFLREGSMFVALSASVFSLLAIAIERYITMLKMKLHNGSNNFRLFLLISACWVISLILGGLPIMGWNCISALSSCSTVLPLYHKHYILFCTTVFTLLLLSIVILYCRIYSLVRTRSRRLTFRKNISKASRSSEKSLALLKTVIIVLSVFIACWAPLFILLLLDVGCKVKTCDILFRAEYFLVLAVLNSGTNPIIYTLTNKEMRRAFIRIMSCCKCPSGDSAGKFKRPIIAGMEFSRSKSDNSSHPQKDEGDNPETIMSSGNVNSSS

Experiments:
[1] = biological target: S1P1 (Homo sapiens, UniProt P21453); experiment: S1P receptor activity assay, calcium flux, agonist format; type: cell-based; settings: range bounds printed with their own units (nM, μM)
[2] = biological target: T1, S1P4 (Homo sapiens, UniProt O95977); experiment: S1P receptor activity assay, calcium flux, antagonist format; type: cell-based; settings: EC80 of reference agonist, range bounds printed with their own units (nM, μM)
T1 sequence (O95977 1-384): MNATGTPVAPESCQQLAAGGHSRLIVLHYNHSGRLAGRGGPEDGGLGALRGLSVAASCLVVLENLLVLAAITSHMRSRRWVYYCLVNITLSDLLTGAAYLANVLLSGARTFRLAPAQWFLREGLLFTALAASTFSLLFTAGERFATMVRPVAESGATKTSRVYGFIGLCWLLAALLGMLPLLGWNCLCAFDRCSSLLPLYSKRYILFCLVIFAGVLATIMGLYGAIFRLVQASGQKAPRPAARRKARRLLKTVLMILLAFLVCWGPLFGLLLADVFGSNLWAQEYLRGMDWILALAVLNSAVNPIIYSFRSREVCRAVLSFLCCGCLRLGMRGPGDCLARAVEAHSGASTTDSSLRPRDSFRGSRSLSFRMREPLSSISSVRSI

## C[Si](C)(C)[C@H]1CC[C@H](Oc2ccc3cc(CN4CCC(C(=O)O)CC4)ccc3c2)CC1 [Example 232]
[1]
  EC50: 50 to 10000 nM
[2]
  S1P4 antagonist activity, IC50 values: 10 to 10000 nM
